# The other results are listed elsewhere or left out.
# What was measured:
# Experiment in all cases: glycan array binding signal (z-score within array); higher = stronger binding
# Settings in all cases: glycan notation: IUPAC condensed, linker removed
# [1] = target: Gal(b1-3)GlcNAc(b1-6)[Gal(b1-3)]GalNAc
# Method in brief: (§1)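 Negative Z-scores can be read as non-binding. The Z-score is calculated within each array and then averaged across arrays of one protein sequence at different concentrations or buffers and across linkers. Arrays, 3228 in all, were curated from the Consortium for Functional Glycomics database and kept only where the protein sequence was available.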
# Gal(b1-3)GlcNAc6S = target: Gal(b1-3)GlcNAc6S
# Method in brief: as §1
# [2] = target: Gal(b1-3)[Fuc(a1-4)]GlcNAc
# Method in brief: as §1
# [3] = target: Gal(b1-3)[Fuc(a1-4)]GlcNAc(b1-2)Man
# Method in brief: as §1
# [4] = target: Gal(b1-3)[Fuc(a1-4)]GlcNAc(b1-2)Man(a1-3)[Gal(b1-3)[Fuc(a1-4)]GlcNAc(b1-2)Man(a1-6)]Man(b1-4)GlcNAc(b1-4)[Fuc(a1-6)]GlcNAc
# Method in brief: as §1
# [5] = target: Gal(b1-3)[Fuc(a1-4)]GlcNAc(b1-3)Gal(b1-3)[Fuc(a1-4)]GlcNAc
# Method in brief: as §1
# [6] = target: Gal(b1-3)[Fuc(a1-4)]GlcNAc(b1-3)Gal(b1-4)[Fuc(a1-3)]GlcNAc
# Method in brief: as §1
# [7] = target: Gal(b1-3)[Fuc(a1-4)]GlcNAc(b1-6)GalNAc
# Method in brief: as §1
# [8] = target: Gal(b1-3)[GlcNAc(b1-6)]GalNAc
# Method in brief: as §1
# [9] = target: Gal(b1-3)[Neu5Ac(a2-6)]GalNAc
# Method in brief: as §1
# [10] = target: Gal(b1-3)[Neu5Ac(a2-6)]GlcNAc(b1-4)Gal(b1-4)Glc
# Method in brief: as §1
# [11] = target: Gal(b1-3)[Neu5Ac(b2-6)]GalNAc
# Method in brief: as §1
# Gal(b1-4)Gal = target: Gal(b1-4)Gal
# Method in brief: as §1
# [12] = target: Gal(b1-4)GalNAc(a1-3)[Fuc(a1-2)]Gal(b1-4)GlcNAc
# Method in brief: as §1
# [13] = target: Gal(b1-4)GalNAc(b1-3)[Fuc(a1-2)]Gal(b1-4)GlcNAc
# Method in brief: as §1
# Gal(b1-4)Glc = target: Gal(b1-4)Glc
# Method in brief: as §1
# Gal(b1-4)Glc6S = target: Gal(b1-4)Glc6S
# Method in brief: as §1
# Gal(b1-4)GlcNAc = target: Gal(b1-4)GlcNAc
# Method in brief: as §1
# [14] = target: Gal(b1-4)GlcNAc(a1-6)Gal(b1-4)GlcNAc
# Method in brief: as §1
# Gal(b1-4)GlcNAc(b1-2)Man = target: Gal(b1-4)GlcNAc(b1-2)Man
# Method in brief: as §1
# [15] = target: Gal(b1-4)GlcNAc(b1-2)Man(a1-3)Man(b1-4)GlcNAc(b1-4)GlcNAc
# Method in brief: as §1
# [16] = target: Gal(b1-4)GlcNAc(b1-2)Man(a1-3)[Gal(b1-4)GlcNAc(b1-2)Man(a1-6)]Man(b1-4)GlcNAc(b1-4)GlcNAc
# Method in brief: as §1
# [17] = target: Gal(b1-4)GlcNAc(b1-2)Man(a1-3)[Gal(b1-4)GlcNAc(b1-2)Man(a1-6)]Man(b1-4)GlcNAc(b1-4)[Fuc(a1-6)]GlcNAc
# Method in brief: as §1
# [18] = target: Gal(b1-4)GlcNAc(b1-2)Man(a1-3)[Gal(b1-4)GlcNAc(b1-2)Man(a1-6)][Gal(b1-4)GlcNAc(b1-4)]Man(b1-4)GlcNAc(b1-4)[Fuc(a1-6)]GlcNAc
# Method in brief: as §1
# [19] = target: Gal(b1-4)GlcNAc(b1-2)Man(a1-3)[Gal(b1-4)GlcNAc(b1-2)Man(a1-6)][GlcNAc(b1-4)]Man(b1-4)GlcNAc(b1-4)[Fuc(a1-6)]GlcNAc
# Method in brief: as §1
# [20] = target: Gal(b1-4)GlcNAc(b1-2)Man(a1-3)[GlcNAc(b1-2)Man(a1-6)]Man(b1-4)GlcNAc(b1-4)GlcNAc
# Method in brief: as §1
# [21] = target: Gal(b1-4)GlcNAc(b1-2)Man(a1-3)[GlcNAc(b1-4)][Gal(b1-4)GlcNAc(b1-2)Man(a1-6)]Man(b1-4)GlcNAc(b1-4)GlcNAc
# Method in brief: as §1
# [22] = target: Gal(b1-4)GlcNAc(b1-2)Man(a1-3)[Man(a1-6)]Man(b1-4)GlcNAc(b1-4)GlcNAc
# Method in brief: as §1
# [23] = target: Gal(b1-4)GlcNAc(b1-2)Man(a1-6)Man(b1-4)GlcNAc(b1-4)GlcNAc
# Method in brief: as §1
# [24] = target: Gal(b1-4)GlcNAc(b1-2)Man(a1-6)[GlcNAc(b1-2)Man(a1-3)]Man(b1-4)GlcNAc(b1-4)GlcNAc
# Method in brief: as §1
# [25] = target: Gal(b1-4)GlcNAc(b1-2)Man(a1-6)[Man(a1-3)]Man(b1-4)GlcNAc(b1-4)GlcNAc
# Method in brief: as §1
# [26] = target: Gal(b1-4)GlcNAc(b1-2)[Gal(b1-4)GlcNAc(b1-4)]Man(a1-3)[Gal(b1-4)GlcNAc(b1-2)Man(a1-6)]Man(b1-4)GlcNAc(b1-4)GlcNAc
# Method in brief: as §1
# [27] = target: Gal(b1-4)GlcNAc(b1-2)[Gal(b1-4)GlcNAc(b1-4)]Man(a1-3)[Gal(b1-4)GlcNAc(b1-2)[Gal(b1-4)GlcNAc(b1-6)]Man(a1-6)]Man(b1-4)GlcNAc(b1-4)GlcNAc
# Method in brief: as §1
# [28] = target: Gal(b1-4)GlcNAc(b1-2)[Gal(b1-4)GlcNAc(b1-4)]Man(a1-3)[GlcNAc(b1-4)][Gal(b1-4)GlcNAc(b1-2)Man(a1-6)]Man(b1-4)GlcNAc(b1-4)GlcNAc
# Method in brief: as §1
# [29] = target: Gal(b1-4)GlcNAc(b1-2)[Gal(b1-4)GlcNAc(b1-4)]Man(a1-3)[GlcNAc(b1-4)][Gal(b1-4)GlcNAc(b1-2)[Gal(b1-4)GlcNAc(b1-6)]Man(a1-6)]Man(b1-4)GlcNAc(b1-4)GlcNAc
# Method in brief: as §1
# [30] = target: Gal(b1-4)GlcNAc(b1-2)[Gal(b1-4)GlcNAc(b1-6)]Man(a1-6)[Gal(b1-4)GlcNAc(b1-2)Man(a1-3)]Man(b1-4)GlcNAc(b1-4)GlcNAc
# Method in brief: as §1
# [31] = target: Gal(b1-4)GlcNAc(b1-2)[Gal(b1-4)GlcNAc(b1-6)]Man(a1-6)[Gal(b1-4)GlcNAc(b1-2)Man(a1-3)]Man(b1-4)GlcNAc(b1-4)[Fuc(a1-6)]GlcNAc
# Method in brief: as §1
binder,measurement,setting,value
LF82 (Escherichia coli) (protein) ADWGPCRTASGDPFIFVTSFTKNIQNPTDNVTGQTYPDFYQWALGDKYSGVCECPSPNPTEARPTLYKTESTLAAGHNSTYFKITNNLEVSTRVYIANVGNVQVPFINKSNSQPGRECDQPTFGWTTGSKGQLSLYIAKPFVGEQNIPQTIIVSVFGTKKENVYSSVPISQVLLSGKVTVTQGCELAAGTSLDIDFGEYQAHDFKGRTGQPPQNVQKIQKELTFNCTNISDGVHIYLSLEGTPNAAYPSAISLGNADVGAVIEDGKGNILKPNDSNSLLEMNPGSLYEYVKRKVTTTITAYPVSTTGKLPAAGDYSGVATMHVELDGGGGGGGGGGATTDLGAKGTLKFSLKISQGHHHHHH,glycan array binding signal (z-score),[1],0.491
same,glycan array binding signal (z-score),Gal(b1-3)GlcNAc6S,-0.996
same,glycan array binding signal (z-score),[2],0.167
same,glycan array binding signal (z-score),[3],1.47
same,glycan array binding signal (z-score),[4],0.378
same,glycan array binding signal (z-score),[5],-0.045
same,glycan array binding signal (z-score),[6],-1.43
same,glycan array binding signal (z-score),[7],2.17
same,glycan array binding signal (z-score),[8],-0.354
same,glycan array binding signal (z-score),[9],-0.209
same,glycan array binding signal (z-score),[10],1.35
same,glycan array binding signal (z-score),[11],-0.087
same,glycan array binding signal (z-score),Gal(b1-4)Gal,-0.8
same,glycan array binding signal (z-score),[12],-0.127
same,glycan array binding signal (z-score),[13],0.234
same,glycan array binding signal (z-score),Gal(b1-4)Glc,-0.412
same,glycan array binding signal (z-score),Gal(b1-4)Glc6S,-0.462
same,glycan array binding signal (z-score),Gal(b1-4)GlcNAc,-0.74
same,glycan array binding signal (z-score),[14],-0.371
same,glycan array binding signal (z-score),Gal(b1-4)GlcNAc(b1-2)Man,-0.374
same,glycan array binding signal (z-score),[15],-1.06
same,glycan array binding signal (z-score),[16],-0.367
same,glycan array binding signal (z-score),[17],0.612
same,glycan array binding signal (z-score),[18],-0.286
same,glycan array binding signal (z-score),[19],1.05
same,glycan array binding signal (z-score),[20],-0.816
same,glycan array binding signal (z-score),[21],-0.745
same,glycan array binding signal (z-score),[22],0.542
same,glycan array binding signal (z-score),[23],4.95
same,glycan array binding signal (z-score),[24],-0.836
same,glycan array binding signal (z-score),[25],-1.08
same,glycan array binding signal (z-score),[26],0.149
same,glycan array binding signal (z-score),[27],-1.18
same,glycan array binding signal (z-score),[28],-0.9
same,glycan array binding signal (z-score),[29],-0.489
same,glycan array binding signal (z-score),[30],-0.357
same,glycan array binding signal (z-score),[31],0.999

# Reprinted at random: 2 records from the list, in no set order.
binder,measurement,setting,value
LF82 (Escherichia coli) (protein) ADWGPCRTASGDPFIFVTSFTKNIQNPTDNVTGQTYPDFYQWALGDKYSGVCECPSPNPTEARPTLYKTESTLAAGHNSTYFKITNNLEVSTRVYIANVGNVQVPFINKSNSQPGRECDQPTFGWTTGSKGQLSLYIAKPFVGEQNIPQTIIVSVFGTKKENVYSSVPISQVLLSGKVTVTQGCELAAGTSLDIDFGEYQAHDFKGRTGQPPQNVQKIQKELTFNCTNISDGVHIYLSLEGTPNAAYPSAISLGNADVGAVIEDGKGNILKPNDSNSLLEMNPGSLYEYVKRKVTTTITAYPVSTTGKLPAAGDYSGVATMHVELDGGGGGGGGGGATTDLGAKGTLKFSLKISQGHHHHHH,glycan array binding signal (z-score),[24],-0.836
same,glycan array binding signal (z-score),Gal(b1-4)Glc,-0.412

# From the supplement of paper PMC8728848
